In patent US20250277023A1 one finds binding data, which are given here for 3 molecules.

By UniProt entry, the sequences of proteins in these tests, tags left out. Residues count along the entry.
UniProt Q495A1, residues 22-244: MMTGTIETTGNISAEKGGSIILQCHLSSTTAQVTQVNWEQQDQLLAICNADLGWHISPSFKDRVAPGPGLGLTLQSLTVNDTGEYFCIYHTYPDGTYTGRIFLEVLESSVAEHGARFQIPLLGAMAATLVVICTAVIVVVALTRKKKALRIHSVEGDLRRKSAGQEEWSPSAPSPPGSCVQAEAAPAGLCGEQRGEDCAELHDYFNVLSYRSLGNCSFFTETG
UniProt Q9NZQ7, residues 19-290: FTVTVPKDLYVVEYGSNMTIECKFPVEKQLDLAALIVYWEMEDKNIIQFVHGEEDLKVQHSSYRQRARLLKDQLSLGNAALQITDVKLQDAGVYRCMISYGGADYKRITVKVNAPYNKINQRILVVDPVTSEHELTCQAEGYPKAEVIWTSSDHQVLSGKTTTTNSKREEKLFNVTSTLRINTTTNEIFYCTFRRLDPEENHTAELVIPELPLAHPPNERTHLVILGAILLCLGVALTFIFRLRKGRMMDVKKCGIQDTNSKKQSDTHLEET

No constants are given. Whether binding was seen depends on the method and setting. Some entries that bind do so weakly or less than the wild type.

For assay [1], the target named is TIGIT (on CHO-TIGIT cells) (UniProt Q495A1). Put plainly: flow cytometry (FCM) on CHO-TIGIT cells. For orientation: A flow cytometer gives signals particle by particle.
The target of assay [2] is PD-L1 (on CHO-PD-L1 cells) (UniProt Q9NZQ7). Put plainly: flow cytometry (FCM) on CHO-PD-L1 cells, positive antibody.

B1: R0774 (Tigit monoclonal antibody) (antibody, V domains shown)
VH: QVQLVQSGAEVKKPGSSVKVSCKASGYSFTSYWMNWVRQAPGQGLEWIGMIRPSDSETRLNQMFKDRVTITVDKSTSTAYMELSSLRSEDTAVYYCAGIHDYGHGAYWGQGTLVTVSS
VL: DIQMTQSPSSLSASVGDRVTITCRASENIYSNLAWYQQKPGKSPKLLVYAASHLPDGVPSRFSGSGSGTDYSLTISSLQPEDFATYYCQHFWGTPRTFGQGTKLEIK
B1: in assay [1], the binding result is “binds”.

B2: R0919 (PD-L1 monoclonal antibody) (antibody, V domains shown)
VH: EVQLQESGPGLVKPSETLSLTCAVYGDSITSGYWNWIRKPPGKGLEYMGYISYTGSTYQNPSLKSRITFSRDTSKNQYYLKLSSVTAADTATYYCARSRAWIRTYFDYWGQGTLVTVSS
VL: EIVLTQSPDFQSVTPKEKVTITCSVSSSISSSNLHWYQQKPDQSPKLLIYGTSNLASGVPSRFSGSGSGTDFTLTINSLEAEDAATYYCQQWSSYPLTFGQGTKLEIK
With B2, in assay [2], the binding result is “binds”.

B3: R0968 (PD-L1 monoclonal antibody) (antibody, V domains shown)
VH: QVQLQESGPGLVKPSETLSLTCAVYGDSITSGYWNWIRKPPGKCLEYIGYISYTGSTYQNPSLKSRITMSRDTSKNQYYLKLSSVTAADTAVYYCARSRAWIRTYFDYWGQGTLVTVSS
VL: DIQMTQSPSSLSASVGDRVTITCSVSSSISSSNLHWYQQKPGKAPKPWIYGTSNLASGVPSRFSGSGSGTDYTLTISSLQPEDFATYYCQQWSSYPLTFGCGTKLEIK
In the case of B3, the binding entry in assay [2] was “binds”.
